Assay results as given in PubChem BioAssay AID488840 (Broad Institute, 2010).
In all, about 1,400 compounds went through this assay and about 45 (3%) were called active.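 The calls were made as follows: active = half-maximal dose of signal decrease from fit no higher than ten times the top valid tested dose; inconclusive = fit invalid, or curve flat with 30 to 70% inhibition; inactive = the rest.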 The list shows a part of the results. Potency and affinity values are given separately.

The chains behind the UniProt entries cited, without tags or fusion partners. Where a name states a change or a piece, a line headed by the entry shows the natural chain unless it says otherwise.
UniProt O75164: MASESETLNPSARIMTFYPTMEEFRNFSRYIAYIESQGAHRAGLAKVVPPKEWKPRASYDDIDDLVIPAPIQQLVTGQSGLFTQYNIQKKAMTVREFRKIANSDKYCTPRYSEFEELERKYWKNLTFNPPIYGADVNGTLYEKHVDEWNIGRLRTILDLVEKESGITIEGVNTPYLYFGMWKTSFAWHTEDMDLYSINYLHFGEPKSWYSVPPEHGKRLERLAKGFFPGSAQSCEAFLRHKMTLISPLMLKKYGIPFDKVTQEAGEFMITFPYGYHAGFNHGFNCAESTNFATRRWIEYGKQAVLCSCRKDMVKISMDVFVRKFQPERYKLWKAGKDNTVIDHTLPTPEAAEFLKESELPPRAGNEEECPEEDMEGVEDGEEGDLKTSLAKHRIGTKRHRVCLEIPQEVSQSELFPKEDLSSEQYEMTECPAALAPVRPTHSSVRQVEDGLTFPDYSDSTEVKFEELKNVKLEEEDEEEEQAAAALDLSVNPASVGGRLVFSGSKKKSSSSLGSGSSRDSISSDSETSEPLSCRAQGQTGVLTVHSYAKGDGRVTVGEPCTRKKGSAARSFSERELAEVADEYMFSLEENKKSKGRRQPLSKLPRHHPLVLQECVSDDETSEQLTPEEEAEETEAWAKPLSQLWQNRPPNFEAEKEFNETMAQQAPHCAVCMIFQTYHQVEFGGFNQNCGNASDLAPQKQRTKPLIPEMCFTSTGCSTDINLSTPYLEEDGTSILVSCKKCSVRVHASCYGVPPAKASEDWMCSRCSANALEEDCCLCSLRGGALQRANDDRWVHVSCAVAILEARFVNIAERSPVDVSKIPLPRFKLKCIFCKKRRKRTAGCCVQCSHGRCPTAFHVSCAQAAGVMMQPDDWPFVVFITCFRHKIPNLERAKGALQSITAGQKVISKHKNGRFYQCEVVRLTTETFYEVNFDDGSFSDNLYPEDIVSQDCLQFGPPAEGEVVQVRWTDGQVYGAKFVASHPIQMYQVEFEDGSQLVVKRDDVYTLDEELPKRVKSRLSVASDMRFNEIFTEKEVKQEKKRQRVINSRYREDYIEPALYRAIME

biological target: Lysine-specific demethylase 4A (Homo sapiens) (UniProt O75164); experiment: JMJD2A histone demethylase inhibitors, dose response, selectivity assay for GASC-1 inhibitor project, biochemical, DELFIA europium, cherry-picked samples (AID 488840); details: GST-JMJD2A(1-420) H3K9me3 demethylation; at 6 µM (top of the series) unless noted;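 also: europium signal reports the dimethyl H3K9 product detected by antibody so inhibitors lower it; 0% = median of neutral control wells and -100% = median of positive control wells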

Activity change, negative = inhibition, inactive:
COc1ccc(NC(=O)Nc2cccc3c2O[C@H](CN(C)C(=O)NC(C)C)[C@@H](C)CN([C@H](C)CO)C3=O)cc1 1.26%
O=C(Cc1ccccc1Cl)NC1(O)C(=O)c2ccccc2C1=O 3%
Cc1c(C2Nc3ccccc3NC3=C2C(=O)CC(C)(C)C3)cnn1C (centres undefined) -13.3%
CCOC(=O)C1=C(C)NC(=O)NC1c1ccc(Br)s1 (centres undefined) -9.77%
Nn1cc(-c2ccccc2)nc1SCC(=O)N1CCN(S(=O)(=O)c2ccc3ccccc3c2)CC1 2.44%
CC1(C)CC[C@]2(CO)CC[C@]3(C)C(=CCC4[C@@]5(C)CC[C@H](O)[C@@](C)(CO)C5CC[C@]43C)[C@@H]2C1 (some centres undefined) 0.503%
COc1ccc(NC(=O)CCc2ccccc2)cc1NC(=O)c1ccco1 -0.171%
CCC(=O)Nc1ccccc1Nc1cc(C#N)c(C#N)cc1[N+](=O)[O-] -1.89%
c1cc2c(cc1-c1csc(NNC3=NCCCCC3)n1)OCCO2 -7.3%
Cc1ccc(S(=O)(=O)N2[C@@H](c3ccc(Br)cc3)C(C(=O)O)=C[C@H]2CC2CCCC2)cc1 1.88%
Cc1cc(C(=O)OCc2nnc(-c3ccccc3)o2)c(C)n1-c1ccccc1 0.787%
O=C(Oc1cccc2cccnc12)c1cccc(N2C(=O)C3C4CCC(C4)C3C2=O)c1 (centres undefined) 5.55%
CCc1ccc(-c2nc(CN3CCC(C(=O)NCc4ccc(F)cc4)CC3)c(C)o2)cc1 1.84%
COc1ccc(CCN=C(NS(=O)(=O)c2ccc(Cl)cc2)c2ccccc2)cc1 3.62%
CCOC(=O)c1ccc(N2C(=O)C(C)=C(C)C2=O)cc1 0.899%
Cc1cccc(-c2noc(CCC(=O)NC3CCCC3)n2)c1 -1.01%
O=C(CSc1nc(-c2ccccc2)cc(=O)[nH]1)NCc1ccc2c(c1)OCO2 -1.25%
CCC(=O)Nc1ccc(NC(=O)CSc2nnnn2C(C)C)cc1 -1.9%
O=C(/C=C\c1ccc2c(c1)OCO2)NC1(C(=O)Nc2ccc3c(c2)OCO3)CCCCC1 3.58%
CC(C)CC(=O)Nc1ccccc1N1CCOCC1 -1.71%
CCOC(=O)N1CCN(c2ccc(F)cc2[N+](=O)[O-])CC1 -1.33%
Fc1cccc(F)c1/C=N/N1CCOCC1 -1.31%
Oc1cc2c(cc1O)C(c1ccccc1)CNCC2 (centres undefined) -5.92%
O=C(NCC(c1ccco1)N1CCCCC1)c1ccc(OCc2ccccc2)cc1 (centres undefined) -0.883%

Gathered by group, those above with a furan ring, fused or not (two)
Activity change, negative = inhibition, inactive:
COc1ccc(NC(=O)CCc2ccccc2)cc1NC(=O)c1ccco1 -0.171%
O=C(NCC(c1ccco1)N1CCCCC1)c1ccc(OCc2ccccc2)cc1 (centres undefined) -0.883%
